Results taken from PubChem BioAssay AID1508600 (Functional Genomics Laboratory (NCATS/FGL), 2020).
The campaign covered roughly 53,000 sequences. About 3,700 (7%) were called active.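 How the source made its calls: active means gene knockdowns whose robust z-score for IL-1 alpha signal is at least 2 or at most -2, so actives lie on both sides; inactive means the rest.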 Some of the results follow.

Test: Components of the Cytosolic LPS Sensing Pathway: Gene Identification via Genome-wide siRNA Screen;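 further: robust z of the log signal after scaling to non-targeting control siRNA wells of the plate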
Settings: RAW264.7 macrophages, IL-1a HTRF, actives lie on both sides, screened at 100 nM (by protocol), cells primed 5 h with Pam3CSK4 first
In short: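 Read-out: IL-1a HTRF on supernatant, divided by plate negative-control median ×100, log-transformed and converted to robust z-score. Cells were RAW264.7 given 100 nM siRNA, Pam3CSK4-primed 5 hours, then LipidA-transfected 24 hour.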

Sequence | z-score
GAAGUCCUGGGACUUUAUGTT against Nudt14 | inactive: 0.208
GGCUAGAAAUCAUCAAUGATT against Ntrk2 | inactive: 0.584
AUACCACAAAGGUCAGCACTT against Defb22 | inactive: -1.31
GGUCUUCUCGGGUCGAAAGTT against Cpt1a | inactive: 0.216
GCUUAAACAGCUUUACUUATT against Actr2 | inactive: 1.07
GGCUGUGAGCCGUAAGACUTT against Mrpl16 | inactive: 0.791
GGUGGAGAACUGAGAAUCUTT against Obp1a | inactive: -0.795
CCUUUGUAACUGGAAUUCUTT against Olfr197 | inactive: 1.74
CCGGAGCUAACACCUACAGTT against 1700049L16Rik | inactive: -0.257
GCAACGUGAAACAUAUUCUTT against Cpb1 | inactive: 1.69
GGUACAAAUGAAGCUUUGATT against Tmem72 | inactive: 0.878
GCCGGACAGGGAAACUUAATT against Spem2 | inactive: 1.33
UCUCAUGGAGUCUGCUGCUTT against Serpina1d | inactive: -1.91
GGAUUUAGGCCUUAUCAUCTT against Atf3 | active: -2.12
CGGAUUCCUGCUCUUAAGUTT against Tdrd3 | inactive: -1.17
GGAGAUAUAAUCAGUGUGGTT against Ilkap | inactive: -0.78
GGAAGAUAAUAUCCUUUGGTT against Olfr734 | inactive: -1.02
GGAGUUCAUUGAUCAUUCUTT against Ndufb5 | active: 2.21
GCUUGACCUUUUUACUCCUTT against Siglece | inactive: 0.262
CCUAUAAGUGAACUGUGAUTT against Aig1 | inactive: -0.71
GGUCAUUGAGCUGAUGGACTT against Elovl1 | active: 4.34
GUGCUAUACUCGGUCGUCATT against Olfr53 | inactive: 0.888

Sequence | z-score
GGUAAUCACACUCAGUGUCTT against Cfap410 | inactive: -0.821
CCAAACGGUUCAAAAAGAUTT against Efcab8 | inactive: -0.21
CCAUUAGCAAUGUGCUUCUTT against Unc13a | inactive: 0.268
GCCUCUCAUUAGCAGUCAATT against Fbxl15 | inactive: -1.92
GCGUGAGUAUGAGAAAUGUTT against Zfp760 | inactive: -0.785
GCAUGUAGUUCAUCAGUACTT against Tubgcp5 | inactive: 0.874
GGCUGAAGACUACUUCCUATT against 4932416K20Rik | inactive: -1.02
GGACCUCUUGUAUUUAUAATT against Lancl3 | inactive: -1.09
CCUCAGCUCCGUAGAUCUUTT against Arhgap29 | inactive: -0.896
GGGCUAAUUGUGAACAUUUTT against Slc7a1 | active: 3.35
GGAGACUGUAUGUGGCAAGTT against Camp | inactive: -1.39
GGUUUGCUUUUAUGAGAGUTT against 2610044O15Rik8 | inactive: 0.477
GGAUUUCAAAGGUGAUGAUTT against Xlr5c | inactive: -0.59
GCUAUUUCUCACAGAAUUATT against Dmd | inactive: 0.9
CCUCCGUUUGAUGACUCAATT against Tcte3 | inactive: 0.00656
GGAGUCGGUUAGAAGCUCUTT against Trim15 | inactive: -0.503
GAUAAUUUGCACAUCCUCUTT against Nrn1l | inactive: -0.999
GGUAAACAGAAUCUGGUGATT against Dhfr | inactive: -0.324
GGAGAGAUAAUCCAUAAUATT against Arl14ep | inactive: 1.07
GCAGUUUCUAAUGAAGGUUTT against Ppp2r5a | inactive: 0.416
CCAACCCUAUUAGUGGAAGTT against Zfp738 | inactive: 0.383
GGAUCUUUCGUGUGGAAAATT against Atf7ip | inactive: 0.87

Sequence | z-score
GCCAUAGCCAAUGAAUAUGTT against Fam98a | inactive: -1.1
GGUUCAAGUGGUAAGCAAUTT against 1700016D06Rik | inactive: 0.222
UAAUACAUUUCGAGCUGCATT against Rbfox3 | inactive: -0.551
GGUGUAGACUCCAACAUGUTT against Aarsd1 | inactive: 1.69
GGCCACACUUUGAAGUGACTT against Setd7 | inactive: -1.39
GGUCAUCUUAUUGAACUUCTT against S1pr1 | inactive: -0.0857
CCCUGUUCGUAAUCAUUAUTT against Olfr467 | inactive: 0.158
GCAAGCCACAACAGUUAAATT against Rpl9 | inactive: 1.23
CCUAUUACUCAAACACAGATT against Arl5b | inactive: -0.257
GCUCAUAAAACUCCAAAAGTT against Mob4 | inactive: -0.713
CAAGGACGGGCUUCUAGUUTT against Vmn1r189 | inactive: -0.0593
CCCUUUCGGGCAAUGGACUTT against Olfr986 | inactive: -0.0157
GCUCUCACCUUCAUUUGAATT against Tmem174 | inactive: -1.37
GGAUGAUGGCUGUAUUUUGTT against Hoxb5 | inactive: -0.0594
CCACCCAUAUUAUAAUUGUTT against Olfr722 | inactive: 0.0235
GGUGAUGUGUAGUGAAUGGTT against Il13 | inactive: -1.94
GGCCAAUGCCUACAAGUAGTT against Dus3l | inactive: -1.94
CCGAAUUGGACUCCACCAATT against Gdf6 | inactive: -1.35
GCUGUAUCCAGCUUUUCGGTT against Tcf3 | inactive: -0.43
CCCAAGAUACCACUUCAUUTT against Arpin | inactive: -0.742
GGAUGUUGUGGGAAAUGACTT against Plaat1 | inactive: -0.27
CCUAUAACUCCAAGGAUACTT against Lexm | inactive: 0.628

Random excerpt: 4 entries already listed, in no set order.
Sequence | z-score
GGACCUCUUGUAUUUAUAATT against Lancl3 | inactive: -1.09
GCUUGACCUUUUUACUCCUTT against Siglece | inactive: 0.262
GGAUGAUGGCUGUAUUUUGTT against Hoxb5 | inactive: -0.0594
GGCUGAAGACUACUUCCUATT against 4932416K20Rik | inactive: -1.02

(list continues)

Sequence | z-score
GGCAAGAAGAAGGAGAAGCTT against Atp4a | inactive: 0.235
CCAGAAUGGCUAAGGGAAATT against Ccdc149 | inactive: 0.495
CGGAGGCUUUUACCAAGUCTT against Tirap | inactive: -0.794
CCUAAUAUGCCAUGGUUCATT against Eef1a2 | inactive: -0.029
CGGCCUUAUCCAGUUAUGATT against Paqr8 | inactive: -0.891
GGCUUCAAGUCUGUUCAACTT against Slc35e4 | inactive: -0.232
CGAGAUGACCUCCUUUAUATT against Ephb3 | inactive: 0.284
GGUACAGUGUCAUCAUGAATT against Olfr460 | inactive: -0.456
GGCUAUAGCAGCACAUUGGTT against Ylpm1 | active: 2.57
CCUCUCAUAUCAUAGGUAATT against Mars2 | inactive: -0.2
GGUAGCAGAGCAGCUUAUUTT against Best2 | inactive: -0.618
GGCCAUCAAGAAAGUCAAGTT against Dusp26 | inactive: 1.57
GGAAAUGGCCUCCAUGAGATT against Krt14 | inactive: 0.734
GGAAUGCCUGCAUAAGUUUTT against Nelfcd | inactive: 0.433
GGAAUACCAAAGUAUGAAGTT against Syne3 | inactive: -0.602
CCUAGAAAGUCUUGGUGGATT against Fam71f1 | inactive: 1.16
CCUACAGAUAGGUAUGUAGTT against Exo1 | active: -2.07
GGGAAUUUAUGCAUUAGCATT against Kif2a | inactive: 0.111
GGCUAAGGCUCAACUAUUGTT against Nat8l | inactive: -0.512
GGUAACACUGUCCACCACUTT against Olfr348 | inactive: -0.0378
GGAUCUGCUGGAAUCUCAGTT against Zmym3 | inactive: 0.445
GGAUGUCAAUGAGGUUUUUTT against Mpp5 | inactive: 1.91

Sequence | z-score
GGUGUAGGGAAUUGUGAAUTT against Rpia | inactive: -0.218
CCUGCCUGACAUUCCUAUUTT against Zdhhc19 | inactive: -0.642
GGAGAUAUUAUUGUUCAGATT against Cemip2 | inactive: -0.337
GGAAAAGGUUUUGUAGAAUTT against Pspc1 | inactive: -0.568
CCUAACUAAGCUUUCCUUUTT against Vmn2r30 | inactive: 0.0977
CCCAUCUUUUAGAAAAUGGTT against Fnip1 | inactive: 0.546
CCGGAUUGCACAUCAUCGATT against Lrrc52 | inactive: -0.533
GGCGAUUUACAAGCUGAAGTT against Guca1b | inactive: 0.566
GGAUAAAGUGAGGAUUCUATT against Pcdhga4 | inactive: -0.647
GCAGUACGAAAUGGUAUACTT against Chd6 | inactive: -1.7
GGGUAAAAAGACGAAGAAATT against Atad2b | inactive: 0.974
GGCACUGCACGACAUAGCUTT against Ido1 | inactive: -0.279
GGAAGUCUAAAGAACAGGATT against Fbxo8 | inactive: -1.12
GGUUCCUCUUUUCCUGGUATT against Olfr1499 | inactive: 0.216
GCCAAUGUCGGAAAAAAUUTT against Spata31d1d | inactive: 0.977
CCUUGGAAUCAAUGUCACGTT against Siah2 | inactive: 1.06
GGAAAAAGAGCAAAAGUCGTT against Rbm39 | inactive: -0.586
GGCCGUACCUAUGAUCUAUTT against Lrfn3 | inactive: 0.636

Part of the list above, comma-delimited.
Sequence,z-score
GAAGUCCUGGGACUUUAUGTT against Nudt14,inactive: 0.208
GGCUAGAAAUCAUCAAUGATT against Ntrk2,inactive: 0.584
